Laboratory results taken from patent publication US10583197 (dated 2020).

Assay: general procedure: solution-phase peptide synthesis; PyBOP/DIPEA; HOBt/pyridine/DIPEA; DEPC/triethylamine
Details: conjugation step

Substance Acetylene Linker-Val-Cit-PABC-MMAE has a conjugation yield of 70%.

In the case of Acetylene Linker-Val-Cit-PABC-MMAF-OMe, the conjugation yield is reported as 36%.
